The other results are listed elsewhere or left out. Further columns of the screen follow, without active or inactive calls. Most of these compounds were active or inconclusive in the main read-out, so they are no random draw. The note in brackets gives the kind of curve behind each potency; many fits are weak.
Assay: IkB Signaling
Details: ABC-DLBCL IkBa-CBG/CBR dual luciferase ratio (green luciferase fused to IkBa over red control in OCI-Ly3 lymphoma cells), 4 h
Summary of the method: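 Luminescence ratio of IκBα-fused green versus native red beetle luciferase in OCI-Ly3 cells, 4 h post-doxycycline with compound; red signal alone, scaled from basal (0%) to zero light (-100%), flagged nonspecific or cytotoxic effects.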

[1] = measured here: control luc red channel unless noted
[2] = measured here: IkB-luc green channel
[3] = measured here: control luc red channel

Q: With `CCCc1ccc(S(=O)(=O)N2CCC(c3nnc(-c4cccc(C)c4)o3)CC2)cc1` as the compound, how does the AC50 [1] read?
A: The AC50 was 39.8 µM [falling, single point].

Q: Which AC50 [1] does the source give for `CCn1c(=O)c2cc(C(=O)NCCCN3CCN(c4ccc(F)cc4)CC3)sc2c2ccccc21` here?
A: The AC50 was 3.98 µM [falling, partial curve].

Q: For `CC(C)Oc1ccc(CNC(=O)c2ccc3c(c2)nc2n3CCCCC2)cc1`, which AC50 [1] is on record?
A: Its AC50 is 10 µM [falling, partial curve].

Q: With `COc1ccc(C)cc1NC(=O)c1c2c(nc3ccccc13)C(=O)N(C1CCCCC1)C2` as the compound, how does the AC50 [1] read?
A: The AC50 was 15.8 µM [falling, partial curve].

Q: With `CCOc1ccc(Br)cc1C1C(C(=O)OC)=C(C)NC2=C1C(=O)c1ccccc12` (stereo not drawn) as the compound, how does the AC50 [1] read?
A: The AC50 was 25.1 µM [falling, single point].

Q: Which AC50 [1] does the source give for `Cc1ccc(Cl)cc1NC(=O)C(Cc1ccccc1)NS(=O)(=O)c1cccc2nsnc12` (stereo not drawn) here?
A: The AC50 was 3.98 µM [falling, full curve].

Q: For `CCc1c(C)sc2c1CCN(C(=O)Nc1ccccc1C(=O)OC)C2c1ccc(OC)cc1` (stereo not drawn), which AC50 [1] is on record?
A: The AC50 was 39.8 µM [falling, single point].

Q: For `COc1ccc(OC)c(C2Nc3c(C)cc(C)cc3-c3cc(C)nn32)c1` (stereo not drawn), which AC50 [1] is on record?
A: Its AC50 is 25.1 µM [falling, partial curve].

Q: Which AC50 [1] does the source give for `Cc1ccc(NS(=O)(=O)c2ccc3c(c2)CC(=O)N3)cc1Cl` here?
A: Its AC50 is 31.6 µM [falling, single point].

Q: With `O=C(NCCC1=CCCCC1)c1ccc(Cl)c(S(=O)(=O)N2CCOCC2)c1` as the compound, how does the AC50 [1] read?
A: The AC50 was 12.6 µM [falling, partial curve].

Q: Which AC50 [1] does the source give for `CC(C)c1ccc(C2=CC(c3cccc(Cl)c3)n3c(nc4ccccc43)N2)cc1` (stereo not drawn) here?
A: The AC50 was 20 µM [falling, single point].

Q: With `CCc1cccc(NC(=O)Cn2c(=O)n(CCC(=O)NCc3ccccc3Cl)c(=O)c3sccc32)c1` as the compound, how does the AC50 [1] read?
A: Its AC50 is 6.31 µM [falling, partial curve].

Q: For `CCOc1ccc2c(c1)C(C)=CC(C)(C)N2`, which AC50 [1] is on record?
A: The AC50 was 15.8 µM [rising, full curve] [measured here: IkB-luc green channel].

Q: With `Oc1c(C(c2ccccc2)N2CCOCC2)sc2nc(-c3ccco3)nn12` (stereo not drawn) as the compound, how does the AC50 [1] read?
A: The AC50 was 20 µM [rising, single point].

Q: Which AC50 [1] does the source give for `Nc1c(C(=O)Nc2cccc(F)c2)nnn1-c1cccc(C(F)(F)F)c1` here?
A: The AC50 was 0.2 µM [rising, full curve].

Q: With `Cc1cc(C)cc(NC(=O)c2sc3nc4n(c(=O)c3c2C)N=C(c2ccccc2)CS4)c1` as the compound, how does the AC50 [1] read?
A: The AC50 was 0.0631 µM [falling, full curve, poor fit].

Q: Which AC50 [1] does the source give for `CCOc1ccc(N2CC(c3nc4ccccc4n3CCCCOc3ccc(OC)cc3)CC2=O)cc1` (stereo not drawn) here?
A: Its AC50 is 15.8 µM [falling, partial curve].

Q: For `COc1ccc(C2=C(C)C(=O)N(Cc3ccc(C(=O)NC(C)c4ccccc4)cc3)S2(=O)=O)cc1` (stereo not drawn), which AC50 [1] is on record?
A: Its AC50 is 10 µM [falling, partial curve].

Q: For `Cc1c(C(=O)O)cnc2cc(-c3ccc(Cl)cc3)nn12`, which AC50 [1] is on record?
A: The AC50 was 3.98 µM [falling, partial curve].

Q: For `Cc1cccc(N2C(=O)CSC23C(=O)N(CC(=O)Nc2cccc(Cl)c2)c2ccccc23)c1` (stereo not drawn), which AC50 [1] is on record?
A: Its AC50 is 12.6 µM [falling, partial curve].

Q: For `O=C(NC1CCCCCC1)C1c2ccccc2C(=O)N1Cc1ccc(F)cc1` (stereo not drawn), which AC50 [1] is on record?
A: Its AC50 is 0.631 µM [falling, partial curve].

Q: Which AC50 [1] does the source give for `O=C(NCc1ccco1)C(c1cccs1)N(C(=O)C1COc2ccccc2O1)c1cccc(O)c1` (stereo not drawn) here?
A: Its AC50 is 25.1 µM [falling, single point].

Q: For `COc1ccccc1C(=O)NCCn1cc(SCC(=O)Nc2nnc(C)s2)c2ccccc21`, which AC50 [1] is on record?
A: The AC50 was 31.6 µM [falling, single point].

Q: Which AC50 [1] does the source give for `Cc1nc2ccccc2n1CCc1nc2c3ccccc3nc(SCC(=O)Nc3cccc(C(F)(F)F)c3)n2n1` here?
A: Its AC50 is 12.6 µM [falling, partial curve].

Q: With `Cc1cc(C)nc(NS(=O)(=O)c2ccc(NC(=O)c3ccccc3O)cc2)n1` as the compound, how does the AC50 [1] read?
A: Its AC50 is 5.01 µM [rising, partial curve].

Q: With `CCCCOc1ccc(C(=O)N2CC(=O)Nc3ccc(Br)cc3C2c2ccc(F)cc2)cc1` (stereo not drawn) as the compound, how does the AC50 [1] read?
A: Its AC50 is 7.94 µM [falling, partial curve].

Q: Which AC50 [1] does the source give for `COc1ccc(Br)cc1Cn1nnc(C(=O)Nc2ccc(C)cc2C)c1N` here?
A: Its AC50 is 39.8 µM [falling, single point].

Q: For `Cc1cc(C)cc(-n2c(SCC(=O)N3CCCC3)nc3c([nH]c4ccccc43)c2=O)c1`, which AC50 [1] is on record?
A: Its AC50 is 2.51 µM [rising, full curve, poor fit].

Q: With `Cn1c(=O)n(-c2ccc3c(c2)OCO3)c2nc(-c3ccc(Cl)cc3)nc(C(N)=O)c21` as the compound, how does the AC50 [1] read?
A: Its AC50 is 31.6 µM [rising, single point].

Q: For `O=C(Cn1nc(-c2ccccc2)c2cnc3ccccc3c21)Nc1ccccc1`, which AC50 [1] is on record?
A: The AC50 was 10 µM [falling, partial curve].

Q: For `Cc1ccc(Cn2nnc3sc4c(c3c2=O)CCC(C)C4)cc1` (stereo not drawn), which AC50 [1] is on record?
A: The AC50 was 0.398 µM [rising, full curve, poor fit].

Q: With `Cc1cccc(N2CCN(C(=O)Cn3ccc4ccccc4c3=O)CC2)c1C` as the compound, how does the AC50 [1] read?
A: Its AC50 is 12.6 µM [falling, partial curve].

Q: With `COc1ccccc1CC(=N)N1C[C@@H]2C(=O)CCC(c3ccccc3)(c3ccccc3)[C@@H]2C1` as the compound, how does the AC50 [1] read?
A: The AC50 was 39.8 µM [falling, single point].

Q: With `Nn1c(SCC(=O)Nc2ccc(F)cc2)nnc1-c1cccnc1` as the compound, how does the AC50 [1] read?
A: Its AC50 is 10 µM [falling, partial curve].

Q: Which AC50 [1] does the source give for `Cc1cc(NC(=O)c2oc3ccccc3c2C)ccc1-n1cnnn1` here?
A: Its AC50 is 39.8 µM [falling, single point].

Q: With `CCCCOc1ccc(C(=O)Nc2ccc(S(=O)(=O)Nc3nc(C)cc(C)n3)cc2)cc1` as the compound, how does the AC50 [1] read?
A: Its AC50 is 7.94 µM [falling, partial curve].

Q: Which AC50 [1] does the source give for `CCCc1ccc(OCc2ccc(C(=O)OC)o2)c(OC)c1` here?
A: The AC50 was 3.98 µM [falling, partial curve].

Q: With `Cc1nn2c(C)c(C(=O)N3CCN(c4ccccc4F)CC3)cnc2c1-c1ccc(F)cc1` as the compound, how does the AC50 [1] read?
A: Its AC50 is 12.6 µM [falling, partial curve].

Q: For `CCN(CC)CCC[C@H](C)Nc1c2ccc(Cl)cc2nc2ccc(OC)cc12`, which AC50 [2] is on record?
A: The AC50 was 39.8 µM [falling, partial curve, poor fit].

Q: What about the AC50 [3] of the same compound?
A: Its AC50 is 10 µM [falling, partial curve].

Q: With `O=C(Nc1ccc(F)c(Cl)c1)C1CCN(C(=O)c2ccc(F)cc2)CC1` as the compound, how does the AC50 [1] read?
A: The AC50 was 39.8 µM [falling, single point].

Q: With `CCOc1cc(-c2cc(-c3ccc(N)cc3)nc(N)c2C#N)ccc1O` as the compound, how does the AC50 [1] read?
A: Its AC50 is 39.8 µM [falling, single point].

Q: For `CCc1ccc2nc(NC(=O)c3cc(C)on3)sc2c1`, which AC50 [1] is on record?
A: The AC50 was 39.8 µM [falling, single point].

Q: Which AC50 [1] does the source give for `COc1ccc(Cl)cc1NC(=O)CSC1=Nc2ccccc2C2=NC(CCC(=O)NCc3ccc(F)cc3)C(=O)N12` (stereo not drawn) here?
A: The AC50 was 7.94 µM [falling, full curve].

Q: With `COc1ccc(NC(=O)C2CCN(S(=O)(=O)c3ccc4[nH]c(=O)ccc4c3)CC2)cc1Cl` as the compound, how does the AC50 [2] read?
A: Its AC50 is 39.8 µM [rising, single point].

Q: And the AC50 [3]?
A: The AC50 was 31.6 µM [rising, single point].

Q: Which AC50 [1] does the source give for `CCc1nnc(SCc2cccc(F)c2)c2cc3sc(C)cc3n12` here?
A: The AC50 was 39.8 µM [falling, single point].

Q: For `CCOc1ccc(N2CC(c3nc4ccccc4n3CCCOc3ccccc3OC)CC2=O)cc1` (stereo not drawn), which AC50 [1] is on record?
A: Its AC50 is 15.8 µM [falling, partial curve].

Q: With `O=C(Nc1nonc1-c1ccc(Cl)cc1)c1ccccc1F` as the compound, how does the AC50 [1] read?
A: The AC50 was 0.631 µM [falling, full curve].

Q: With `Cn1c(=O)oc2cc(S(=O)(=O)Nc3ccc4c(c3)OCO4)ccc21` as the compound, how does the AC50 [1] read?
A: Its AC50 is 10 µM [falling, partial curve].

Q: With `CC(C)Cn1c(N)c(C(=O)CSc2ccc3c(c2)OCCO3)c(=O)n(C)c1=O` as the compound, how does the AC50 [1] read?
A: The AC50 was 3.98 µM [falling, partial curve].

Q: For `Cc1ccccc1NC(=O)c1c(C)oc2ccc(O)c(CN3CCC(C)CC3)c12`, which AC50 [1] is on record?
A: Its AC50 is 20 µM [falling, partial curve].

Q: Which AC50 [1] does the source give for `CCOc1ccc(-c2nnc(SCC(=O)Nc3cc(F)ccc3F)o2)cc1` here?
A: Its AC50 is 10 µM [falling, partial curve].

Q: For `COc1ccc(NC(=O)c2c(-c3ccccc3Cl)noc2C)c(OC)c1`, which AC50 [1] is on record?
A: Its AC50 is 15.8 µM [falling, partial curve].

Q: For `COc1ccc(NC(=O)c2cnn(-c3ccc(F)cc3F)c2C2CCN(C(=O)OC(C)(C)C)CC2)cc1Cl`, which AC50 [1] is on record?
A: Its AC50 is 25.1 µM [falling, partial curve].

Q: For `Nc1nonc1-c1nc2ccccc2n1Cc1c(Cl)cccc1Cl`, which AC50 [1] is on record?
A: Its AC50 is 10 µM [falling, partial curve].

Q: Which AC50 [1] does the source give for `COc1ccc(CCNC(=O)c2ccc3nc(Cc4ccccc4)oc3c2)cc1OC` here?
A: The AC50 was 1 µM [falling, partial curve].

Q: Which AC50 [1] does the source give for `O=C(C1CCCN(S(=O)(=O)c2cccc3nonc23)C1)N1CCN(c2ccccc2Cl)CC1` (stereo not drawn) here?
A: The AC50 was 15.8 µM [falling, partial curve].

Q: For `CCOC(=O)Cn1c(=O)oc2cc(S(=O)(=O)N3CCN(c4ccccc4OC)CC3)ccc21`, which AC50 [1] is on record?
A: The AC50 was 31.6 µM [falling, single point].

Q: For `O=C(NCCc1csc2nc(-c3ccccc3F)nn12)c1ccccc1C(F)(F)F`, which AC50 [1] is on record?
A: Its AC50 is 15.8 µM [falling, partial curve].

Q: With `CC(C)Oc1cccc(C(=O)Nc2ccc(CN3CCOCC3)cc2)c1` as the compound, how does the AC50 [1] read?
A: The AC50 was 25.1 µM [falling, partial curve].

Q: For `CCCCn1c(SCc2c(C)noc2C)nc2cc(S(N)(=O)=O)ccc21`, which AC50 [1] is on record?
A: Its AC50 is 12.6 µM [rising, partial curve] [measured here: IkB-luc green channel].

Q: With `Cc1ccc(Cl)cc1N(C)C(=O)c1noc2c1CCCCC2` as the compound, how does the AC50 [1] read?
A: Its AC50 is 25.1 µM [falling, partial curve].

Reference: PubChem BioAssay AID445 (National Center for Advancing Translational Sciences (NCATS), 2006)
